# Experimental data as given in PubChem BioAssay AID1671190 (National Center for Advancing Translational Sciences (NCATS), 2021).
# Protein sequences, listed by entry. Tags and fused reporters are not part of them. Lines headed by an entry give the natural chain unless they say otherwise; changes in a name come on top.
# UniProt P18054: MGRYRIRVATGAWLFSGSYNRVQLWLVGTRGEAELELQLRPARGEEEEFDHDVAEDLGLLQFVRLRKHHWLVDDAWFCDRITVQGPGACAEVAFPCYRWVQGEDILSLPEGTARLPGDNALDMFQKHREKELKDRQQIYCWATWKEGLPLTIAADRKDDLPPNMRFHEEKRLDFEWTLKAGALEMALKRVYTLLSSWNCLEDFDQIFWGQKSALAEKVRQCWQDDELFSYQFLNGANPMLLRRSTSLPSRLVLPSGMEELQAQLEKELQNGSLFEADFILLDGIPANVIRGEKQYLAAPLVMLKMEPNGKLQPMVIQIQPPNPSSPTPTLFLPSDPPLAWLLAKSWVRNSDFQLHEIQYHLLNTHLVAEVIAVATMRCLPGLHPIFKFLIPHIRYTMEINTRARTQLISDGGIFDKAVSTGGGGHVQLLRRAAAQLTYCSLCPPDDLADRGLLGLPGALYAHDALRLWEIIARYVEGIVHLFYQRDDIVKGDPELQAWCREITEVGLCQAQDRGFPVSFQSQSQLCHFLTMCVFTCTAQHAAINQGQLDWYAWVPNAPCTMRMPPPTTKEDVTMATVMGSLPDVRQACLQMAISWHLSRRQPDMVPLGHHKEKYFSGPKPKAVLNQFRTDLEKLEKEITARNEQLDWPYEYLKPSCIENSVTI
# The whole screen tested about 580,000 compounds, of which about 6,100 (1.1%) were called active. The shares of active, inactive and inconclusive entries below differ from those in the screen. The call rests on the fitted dose curve; in most records, active means well fitted inhibition curve with a large enough effect; inconclusive means small, poorly fitted or top-dose-only effect, or another doubt; inactive means no such curve, though single readings can be large or run the other way. A potency beside an inconclusive call is a rough fit, not a confirmed value.
# Molecular target: Polyunsaturated fatty acid lipoxygenase ALOX12 (Homo sapiens) (UniProt P18054)
# Experiment: Primary qHTS assay for inhibitors of human arachidonate 12S-lipoxygenase (ALOX12): Round 2
# Conditions: purified 12hLO, xylenol orange hydroperoxide absorbance; activity change, negative = inhibition: at 108 µM (top of the series) unless noted
# In short: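 Hydroperoxide product was detected by ferrous iron/xylenol orange as the 573 to 405 nm absorbance ratio. Arachidonic acid at 40 uM (final) was turned over for 30 min at room temperature by 150 nM human 12hLO, pH 7.0 Hepes buffer, after 15 min compound preincubation.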
# On the % scale 0 is the no-effect control and ±100 the full control effect; potency means the concentration at half of the fitted maximal effect.
SMILES,Potency,"activity change, negative = inhibition"
CC(C)c1ccc(C2=C(O)c3ccccc3C(=O)C2=O)cc1,"inconclusive: 44.7 µM [inhibitor, partial curve, poor fit]",–
Cc1nc2c(C(=O)NCCc3ccccc3)c[nH]n2c(=O)c1Cl,"inconclusive: 10 µM [inhibitor, full curve, poor fit]",–
O=C(Nc1ccccc1)c1cccc(S(=O)(=O)Nc2cccc(F)c2)c1,"inconclusive: 126 µM [inhibitor, partial curve, poor fit]",–
Cc1ccc(N2C(=O)NC(NC(=O)c3ccc(Cl)cc3)(C(F)(F)F)C2=O)cc1 (stereo unspecified),"inconclusive: 50.1 µM [inhibitor, partial curve, poor fit]",–
COc1ccc(Cl)cc1C(=O)Nc1cc(=O)n(C)c(=O)n1C,"inconclusive: 100 µM [inhibitor, single point]",–
Cc1nc(C)c(-c2csc(Nc3ccc(S(N)(=O)=O)cc3)n2)s1,–,inactive: -1.12%
COc1ccc(OC)c(-c2cc(C(=O)NC(C)c3ccccc3)no2)c1 (stereo unspecified),–,inconclusive: -36.8% [inhibitor]
COc1cccc(/C=C/c2ccc3cccc(O)c3n2)c1O,"inconclusive: 35.5 µM [inhibitor, partial curve, poor fit]",–
Cc1ccc(C)c(S(=O)(=O)C(C#N)c2nc3ccccc3nc2N2CC(C)OC(C)C2)c1 (stereo unspecified),"inconclusive: 44.7 µM [inhibitor, partial curve, poor fit]",–
COc1ccc(NC(=O)Cn2nnc(-c3ccccc3)c2COc2ccc3ccccc3c2)cn1,–,inactive: 12.8%
CC(=O)OCC1=C(C(=O)OC(C)(C)C)N2C(=O)[C@@H](NC(=O)Cc3ccccc3)[C@H]2SC1,–,inactive: -90%
COC(=O)C1=C(C)N(Cc2ccccc2C(F)(F)F)C(=NCc2ccccc2)NC1c1ccc(Cl)cc1 (stereo unspecified),"inconclusive: 126 µM [inhibitor, single point]",–
Cc1c(N2CCCC2)cc2c(c1NC(=O)c1ccccc1Cl)C(C)(C)CC2(C)C,"inconclusive: 44.7 µM [inhibitor, partial curve, poor fit]",–
O=C(CSc1nnc(NC(=O)C2CC(=O)N(c3ccc(F)cc3)C2)s1)NC1CCCC1 (stereo unspecified),"inconclusive: 79.4 µM [inhibitor, partial curve, poor fit]",–
CC(C)c1ccc2c(c1)C(N1CCNCC1)Cc1ccc(F)cc1S2 (stereo unspecified),"inconclusive: 39.8 µM [inhibitor, partial curve, poor fit]",–
C/C(=N\NC(=O)c1ccc(Br)cc1)c1cccc(NC(=O)c2cccnc2)c1,–,inactive: -4.3%
O=C(N=Nc1c(O)[nH]c2ccccc12)c1ccc(CN2CCOCC2)cc1,–,inactive: -3.22%
Cc1ccc(C2c3c(n[nH]c3C(C)C)C(=O)N2c2ccccc2)cc1 (stereo unspecified),"inconclusive: 14.1 µM [inhibitor, full curve, poor fit]",–
COc1ccccc1CNC(=O)COc1ccc2c(c1)CCC2,"inconclusive: 0.398 µM [inhibitor, full curve, poor fit]",–
COc1ccc([N+](=O)[O-])cc1NC(=O)CCN1CCN(c2ccccc2OC)CC1,"inconclusive: 100 µM [inhibitor, partial curve, poor fit]",–
COc1ccc(-n2nnnc2C(c2ccnc3ccccc23)N2CCN(C/C=C/c3ccccc3)CC2)cc1 (stereo unspecified),"inconclusive: 35.5 µM [inhibitor, partial curve, poor fit]",–

# Compounds listed so far with a Cl atom, in the order listed:
SMILES,Potency,"activity change, negative = inhibition"
Cc1nc2c(C(=O)NCCc3ccccc3)c[nH]n2c(=O)c1Cl,"inconclusive: 10 µM [inhibitor, full curve, poor fit]",–
Cc1ccc(N2C(=O)NC(NC(=O)c3ccc(Cl)cc3)(C(F)(F)F)C2=O)cc1 (stereo unspecified),"inconclusive: 50.1 µM [inhibitor, partial curve, poor fit]",–
COc1ccc(Cl)cc1C(=O)Nc1cc(=O)n(C)c(=O)n1C,"inconclusive: 100 µM [inhibitor, single point]",–
COC(=O)C1=C(C)N(Cc2ccccc2C(F)(F)F)C(=NCc2ccccc2)NC1c1ccc(Cl)cc1 (stereo unspecified),"inconclusive: 126 µM [inhibitor, single point]",–
Cc1c(N2CCCC2)cc2c(c1NC(=O)c1ccccc1Cl)C(C)(C)CC2(C)C,"inconclusive: 44.7 µM [inhibitor, partial curve, poor fit]",–

# (further entries)

SMILES,Potency,"activity change, negative = inhibition"
O=C(CSc1cccc[n+]1[O-])c1ccc(-c2ccccc2)cc1,"inconclusive: 31.6 µM [inhibitor, partial curve, poor fit]",–
O=C1C=C(c2cccs2)CC(c2cccs2)C1n1cnc([N+](=O)[O-])c1 (stereo unspecified),"inconclusive: 15.8 µM [inhibitor, full curve, poor fit]",–
COc1ccccc1-c1nc(C#N)c(N2CCN(C(=O)c3ccccc3)CC2)o1,–,inactive: 19%
Clc1ccc(-c2csc(NNC3=NCCCCC3)n2)cc1,"inconclusive: 50.1 µM [inhibitor, partial curve, poor fit]",–
O=C(CNC(=O)C(c1ccccc1)c1ccccc1)N/N=C/c1ccc(O)cc1O,–,inactive: 0%
Cc1ccc(NC(=O)CN(C)C(=O)c2cccc(S(=O)(=O)NCC3CCCO3)c2)cc1 (stereo unspecified),–,inactive: 0.098%
CN(C)c1ccc(C(=S)N2CCCC2)cc1Br,–,inactive: 56.7%
Cc1oc(C)c2c(=O)cc(-c3ccc4c(c3)OCO4)cc(OC(=O)c3ccccc3Cl)c12,"inconclusive: 112 µM [inhibitor, single point]",–
CC(Sc1nnc(CNC(=O)c2ccccc2F)n1C)C(=O)Nc1nccs1 (stereo unspecified),"inconclusive: 25.1 µM [inhibitor, full curve, poor fit]",–
COc1ccc(-c2csc(NC(=O)CSc3nc4ccccc4c(=O)[nH]3)n2)cc1,–,inactive: -24.1%
CCc1ccc2oc(-c3cccc(NC(=O)COc4ccc([N+](=O)[O-])cc4)c3)nc2c1,–,inactive: -38.1%
CN(C)Cc1cc(C[C@@H]2C[C@H](NC(=O)COc3ccccc3)C2(C)C)no1,–,inactive: 30.4% [at 176 µM]
CCCN(C)C[C@H]1Oc2cc(C#Cc3ccc(F)cc3)ccc2S(=O)(=O)N([C@H](C)CO)C[C@@H]1C,"inconclusive: 44.7 µM [inhibitor, partial curve, poor fit]",–
COc1ccccc1C1CC(=O)Nc2cc3c(cc21)OCCO3 (stereo unspecified),"inconclusive: 0.398 µM [inhibitor, full curve, poor fit]",–
O=C(NC1CCCCCC1)c1cc2c(F)cccc2s1,"inconclusive: 89.1 µM [inhibitor, single point]",–
NC(COCc1ccccc1)c1csc(Nc2ncccn2)n1 (stereo unspecified),–,inactive: 17%
COc1ccc(C(NC(=O)/C=C/c2ccco2)c2ccc(OC)c(OC)c2)cc1 (stereo unspecified),active: 44.7 µM,–
COC(=O)CNC(=S)NC(=O)c1ccc(C(C)(C)C)cc1,"inconclusive: 44.7 µM [inhibitor, partial curve, poor fit]",–
COc1ccccc1CNC(=O)c1ccc2nc(-c3ccccc3)c(-c3ccccc3)nc2c1,"inconclusive: 141 µM [inhibitor, partial curve, poor fit]",–
O=C(/C=C/c1ccccn1)c1ccc(Br)cc1O,"inconclusive: 39.8 µM [inhibitor, partial curve]",–
